{
  "sequences": {"note": "Chains of the proteins cited; added tags and fusions are not shown.", "UniProt P46940": "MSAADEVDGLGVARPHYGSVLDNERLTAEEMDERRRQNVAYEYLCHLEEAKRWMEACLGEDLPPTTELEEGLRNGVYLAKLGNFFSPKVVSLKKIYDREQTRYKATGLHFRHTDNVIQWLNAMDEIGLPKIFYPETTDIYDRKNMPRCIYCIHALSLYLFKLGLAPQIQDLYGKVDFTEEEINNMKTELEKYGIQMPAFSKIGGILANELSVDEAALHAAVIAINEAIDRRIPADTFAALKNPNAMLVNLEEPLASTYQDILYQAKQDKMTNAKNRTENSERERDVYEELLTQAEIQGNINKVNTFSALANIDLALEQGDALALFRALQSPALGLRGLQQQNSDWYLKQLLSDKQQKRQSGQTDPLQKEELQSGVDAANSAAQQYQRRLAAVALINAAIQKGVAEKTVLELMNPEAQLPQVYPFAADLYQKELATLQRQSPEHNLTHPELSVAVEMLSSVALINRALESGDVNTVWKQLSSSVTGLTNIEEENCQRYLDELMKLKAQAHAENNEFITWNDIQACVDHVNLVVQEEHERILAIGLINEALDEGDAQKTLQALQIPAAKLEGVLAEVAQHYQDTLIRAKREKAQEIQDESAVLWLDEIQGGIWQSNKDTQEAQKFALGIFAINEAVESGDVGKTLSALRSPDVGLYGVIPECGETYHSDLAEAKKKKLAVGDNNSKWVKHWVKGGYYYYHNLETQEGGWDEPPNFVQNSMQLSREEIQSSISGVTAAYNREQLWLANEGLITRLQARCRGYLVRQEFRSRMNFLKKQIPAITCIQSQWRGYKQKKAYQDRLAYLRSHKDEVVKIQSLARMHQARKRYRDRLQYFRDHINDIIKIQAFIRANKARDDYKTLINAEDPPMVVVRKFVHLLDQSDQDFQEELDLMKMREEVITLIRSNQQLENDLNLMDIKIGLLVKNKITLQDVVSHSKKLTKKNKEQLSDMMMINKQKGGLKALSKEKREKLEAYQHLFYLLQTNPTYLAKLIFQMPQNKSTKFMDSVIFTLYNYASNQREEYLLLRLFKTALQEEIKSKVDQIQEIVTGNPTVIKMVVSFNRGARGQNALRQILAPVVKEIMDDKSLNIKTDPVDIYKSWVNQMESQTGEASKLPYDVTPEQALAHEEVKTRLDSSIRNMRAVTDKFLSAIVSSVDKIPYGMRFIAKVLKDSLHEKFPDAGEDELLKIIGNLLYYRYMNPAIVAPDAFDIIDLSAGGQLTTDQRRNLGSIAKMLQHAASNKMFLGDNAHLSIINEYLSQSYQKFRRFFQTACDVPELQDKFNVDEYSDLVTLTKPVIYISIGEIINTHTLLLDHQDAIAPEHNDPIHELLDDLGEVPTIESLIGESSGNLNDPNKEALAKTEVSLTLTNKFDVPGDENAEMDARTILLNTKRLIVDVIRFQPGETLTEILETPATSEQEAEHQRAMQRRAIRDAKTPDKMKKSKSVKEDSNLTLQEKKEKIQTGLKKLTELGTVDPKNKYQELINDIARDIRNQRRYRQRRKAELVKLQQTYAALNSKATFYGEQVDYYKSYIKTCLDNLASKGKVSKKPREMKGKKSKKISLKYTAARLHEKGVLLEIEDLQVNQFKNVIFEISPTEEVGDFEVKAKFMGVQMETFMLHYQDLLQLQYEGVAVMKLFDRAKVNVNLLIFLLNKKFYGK", "UniProt P35222": "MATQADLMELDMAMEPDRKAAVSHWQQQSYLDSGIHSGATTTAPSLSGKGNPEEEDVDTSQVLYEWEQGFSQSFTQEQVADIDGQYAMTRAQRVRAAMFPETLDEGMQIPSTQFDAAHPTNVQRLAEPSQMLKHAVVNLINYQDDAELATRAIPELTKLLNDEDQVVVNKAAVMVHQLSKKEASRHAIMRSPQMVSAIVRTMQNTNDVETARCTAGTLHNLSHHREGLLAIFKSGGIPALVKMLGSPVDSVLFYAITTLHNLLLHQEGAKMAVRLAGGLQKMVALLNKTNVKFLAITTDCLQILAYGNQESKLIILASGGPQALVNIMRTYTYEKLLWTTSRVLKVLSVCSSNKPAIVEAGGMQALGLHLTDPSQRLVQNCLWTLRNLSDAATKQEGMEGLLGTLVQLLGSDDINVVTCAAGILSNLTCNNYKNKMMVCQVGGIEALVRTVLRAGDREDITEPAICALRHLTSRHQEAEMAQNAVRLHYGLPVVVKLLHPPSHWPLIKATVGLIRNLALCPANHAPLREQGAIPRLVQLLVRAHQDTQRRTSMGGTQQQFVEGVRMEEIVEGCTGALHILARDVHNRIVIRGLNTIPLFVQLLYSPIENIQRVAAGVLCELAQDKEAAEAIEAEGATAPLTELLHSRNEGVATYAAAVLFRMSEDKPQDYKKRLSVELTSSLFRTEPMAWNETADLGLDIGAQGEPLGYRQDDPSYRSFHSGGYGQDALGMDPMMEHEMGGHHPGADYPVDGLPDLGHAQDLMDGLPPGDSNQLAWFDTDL"},
  "source": "paper PMC4529304",
  "target": "IQ-domain GTPase-activating protein 1 (IQGAP1) (human (endogenous in HepG2)) (UniProt P46940)",
  "assay": "co-IP; 500 ug HepG2 cell lysate in 20 mM Tris pH 7.5, 150 mM NaCl, 1% Triton X-100, protease inhibitors; 1-2 ug anti-IQGAP1 antibodies on protein A+G sepharose, mouse IgG as control; 4 washes; western blot",
  "note": "These are yes or no findings as the source states them, for the method shown. In cells and extracts the contact can be indirect. Some entries that bind do so weakly or less than the wild type.",
  "data": [
    {"substance": "β-catenin (from UniProt P35222 1-781)", "values": [
      {"measurement": "binding", "result": "binds"}
    ]}
  ]
}
